Substitutions are numbered along the chain they refer to. No constants are given. Whether binding was seen depends on the method and setting. In cells and extracts the contact can be indirect. Some results given as binding are weak or reduced against the parent protein; the word gives no strength. Sequences can lack the tags named with a protein.
Assays:
Experiment in all cases: co-IP; FLAG-tag affinity purification with MIA40_(FLAG) as bait on anti-FLAG M2 affinity gel, 2 h at 4 °C; cells solubilised in 50 mM Tris-HCl pH 7.4, 150 mM NaCl, 10% glycerol, 1 mM EDTA, 2 mM PMSF, 50 mM IAA, 1% digitonin; eluates by SDS-PAGE and Western blot; control HEK293T versus NDUFA13-KO cells; with or without 100 µM NADH; cells treated with 10 or 100 nM rotenone for 12 h; with or without Nde2-HA expression
[1] = target: T1, MIA40_(FLAG) (Mitochondrial intermembrane space import and assembly protein 40, FLAG-tagged), transfected in HEK293T cells (human) (UniProt Q8N4Q1)
T1 sequence: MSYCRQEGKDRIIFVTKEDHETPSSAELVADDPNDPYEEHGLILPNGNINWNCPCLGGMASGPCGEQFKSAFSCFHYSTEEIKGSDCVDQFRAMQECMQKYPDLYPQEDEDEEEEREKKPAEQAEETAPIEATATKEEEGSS

By UniProt entry, the sequences of proteins in these tests, tags left out. Residues count along the entry.
UniProt O95831, residues 102-613: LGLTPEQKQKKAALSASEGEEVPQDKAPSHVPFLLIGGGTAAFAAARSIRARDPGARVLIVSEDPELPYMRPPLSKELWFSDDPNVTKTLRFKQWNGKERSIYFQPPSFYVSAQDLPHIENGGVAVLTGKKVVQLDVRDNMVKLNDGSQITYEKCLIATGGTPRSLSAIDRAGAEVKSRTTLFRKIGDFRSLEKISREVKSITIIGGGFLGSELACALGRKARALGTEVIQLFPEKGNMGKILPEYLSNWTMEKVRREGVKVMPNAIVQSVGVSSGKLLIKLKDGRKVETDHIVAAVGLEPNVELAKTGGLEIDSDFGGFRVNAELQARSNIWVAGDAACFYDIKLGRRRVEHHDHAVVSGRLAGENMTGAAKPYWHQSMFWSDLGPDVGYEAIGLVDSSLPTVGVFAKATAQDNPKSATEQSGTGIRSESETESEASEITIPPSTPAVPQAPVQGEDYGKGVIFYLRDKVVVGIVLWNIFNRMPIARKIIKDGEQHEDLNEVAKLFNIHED

[2] = target: T2, MIA40WT_(FLAG), wild-type MIA40 with FLAG tag, inducible expression in Flp-In T-REx 293 cells (human) (UniProt Q8N4Q1)
T2 sequence: T1 sequence

[3] = target: T3, MIA40-C55S_(FLAG), inducible expression in Flp-In T-REx 293 cells (human) (UniProt Q8N4Q1)
T3 sequence: T1 sequence with C55S

Measured: binding

apoptosis-inducing factor 1 (AIFM1) (from UniProt O95831 102-613)
binds: all assays above

Source: publication PMC11976965
